# Measurements published in the supplement of paper PMC12067093, “Discovery and optimisation of a covalent ligand for TRIM25 and its application to targeted protein ubiquitination” (Chemical Science, 2025).
# Amino acid sequences for entries named in this document (tags omitted). A change or cut given only in a name is not applied to a line headed by its entry.
# UniProt O75648: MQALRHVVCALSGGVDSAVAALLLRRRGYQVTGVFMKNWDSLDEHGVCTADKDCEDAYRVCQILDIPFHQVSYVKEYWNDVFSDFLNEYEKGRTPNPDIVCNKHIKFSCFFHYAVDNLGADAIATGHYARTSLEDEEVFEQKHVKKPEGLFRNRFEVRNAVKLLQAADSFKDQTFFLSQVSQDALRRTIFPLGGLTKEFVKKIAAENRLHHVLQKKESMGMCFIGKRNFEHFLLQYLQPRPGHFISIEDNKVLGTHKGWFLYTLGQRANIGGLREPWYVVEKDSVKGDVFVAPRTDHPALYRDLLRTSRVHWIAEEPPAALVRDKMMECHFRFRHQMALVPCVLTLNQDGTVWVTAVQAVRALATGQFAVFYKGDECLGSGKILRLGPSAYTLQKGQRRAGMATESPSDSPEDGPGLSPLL
# UniProt Q8N584: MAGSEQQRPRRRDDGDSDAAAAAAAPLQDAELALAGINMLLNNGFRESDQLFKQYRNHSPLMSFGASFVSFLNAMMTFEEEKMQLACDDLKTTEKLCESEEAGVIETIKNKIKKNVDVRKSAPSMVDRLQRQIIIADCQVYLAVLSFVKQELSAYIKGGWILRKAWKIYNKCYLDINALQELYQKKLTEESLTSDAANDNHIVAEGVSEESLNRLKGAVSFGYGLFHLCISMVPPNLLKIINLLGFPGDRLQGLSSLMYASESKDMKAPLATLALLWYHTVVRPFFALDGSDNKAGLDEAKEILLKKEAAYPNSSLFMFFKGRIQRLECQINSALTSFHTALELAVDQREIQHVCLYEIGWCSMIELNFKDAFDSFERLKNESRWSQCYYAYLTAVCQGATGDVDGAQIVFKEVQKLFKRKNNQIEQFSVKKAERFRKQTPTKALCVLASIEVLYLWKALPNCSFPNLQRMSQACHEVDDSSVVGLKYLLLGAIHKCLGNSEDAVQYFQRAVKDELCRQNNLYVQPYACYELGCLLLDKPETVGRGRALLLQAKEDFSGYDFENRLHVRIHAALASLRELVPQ
# UniProt Q9UNY4: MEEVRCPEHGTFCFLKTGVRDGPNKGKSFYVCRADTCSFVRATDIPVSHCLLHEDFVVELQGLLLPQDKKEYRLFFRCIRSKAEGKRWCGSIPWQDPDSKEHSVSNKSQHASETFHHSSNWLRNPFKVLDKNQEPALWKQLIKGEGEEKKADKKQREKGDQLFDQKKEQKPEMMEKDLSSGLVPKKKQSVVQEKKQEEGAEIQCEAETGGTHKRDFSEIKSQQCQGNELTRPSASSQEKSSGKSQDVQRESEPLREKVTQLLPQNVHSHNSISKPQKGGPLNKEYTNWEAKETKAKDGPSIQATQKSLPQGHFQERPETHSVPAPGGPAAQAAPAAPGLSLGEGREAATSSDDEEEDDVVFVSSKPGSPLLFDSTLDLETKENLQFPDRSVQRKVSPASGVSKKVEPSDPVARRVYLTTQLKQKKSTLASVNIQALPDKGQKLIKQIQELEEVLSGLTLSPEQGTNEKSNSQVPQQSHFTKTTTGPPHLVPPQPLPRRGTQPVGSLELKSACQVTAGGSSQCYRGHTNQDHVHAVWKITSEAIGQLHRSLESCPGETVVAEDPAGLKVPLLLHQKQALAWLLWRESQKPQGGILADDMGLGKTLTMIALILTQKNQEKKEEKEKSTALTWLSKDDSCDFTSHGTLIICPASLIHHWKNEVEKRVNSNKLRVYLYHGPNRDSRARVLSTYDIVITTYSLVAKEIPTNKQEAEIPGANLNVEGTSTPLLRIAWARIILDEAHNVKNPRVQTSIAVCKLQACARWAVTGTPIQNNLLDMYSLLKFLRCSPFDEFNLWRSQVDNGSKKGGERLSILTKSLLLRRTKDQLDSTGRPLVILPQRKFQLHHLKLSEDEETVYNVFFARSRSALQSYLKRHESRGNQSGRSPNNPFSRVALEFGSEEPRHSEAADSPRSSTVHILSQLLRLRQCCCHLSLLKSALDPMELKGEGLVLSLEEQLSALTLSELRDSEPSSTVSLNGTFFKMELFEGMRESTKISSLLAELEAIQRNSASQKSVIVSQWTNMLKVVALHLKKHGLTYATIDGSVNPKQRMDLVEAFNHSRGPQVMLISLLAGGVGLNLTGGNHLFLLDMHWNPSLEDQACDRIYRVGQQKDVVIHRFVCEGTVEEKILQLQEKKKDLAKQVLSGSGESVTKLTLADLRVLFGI
# UniProt P43897: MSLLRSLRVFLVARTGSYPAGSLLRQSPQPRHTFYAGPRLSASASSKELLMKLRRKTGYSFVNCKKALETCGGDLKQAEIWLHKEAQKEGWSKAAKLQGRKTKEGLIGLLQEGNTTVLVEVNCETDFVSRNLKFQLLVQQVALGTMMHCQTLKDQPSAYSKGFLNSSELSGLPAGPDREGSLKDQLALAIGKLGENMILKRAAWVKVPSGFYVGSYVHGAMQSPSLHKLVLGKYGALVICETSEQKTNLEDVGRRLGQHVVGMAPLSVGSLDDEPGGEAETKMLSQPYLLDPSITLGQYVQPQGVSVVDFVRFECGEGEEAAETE
# UniProt P68363, whole entry, looked up: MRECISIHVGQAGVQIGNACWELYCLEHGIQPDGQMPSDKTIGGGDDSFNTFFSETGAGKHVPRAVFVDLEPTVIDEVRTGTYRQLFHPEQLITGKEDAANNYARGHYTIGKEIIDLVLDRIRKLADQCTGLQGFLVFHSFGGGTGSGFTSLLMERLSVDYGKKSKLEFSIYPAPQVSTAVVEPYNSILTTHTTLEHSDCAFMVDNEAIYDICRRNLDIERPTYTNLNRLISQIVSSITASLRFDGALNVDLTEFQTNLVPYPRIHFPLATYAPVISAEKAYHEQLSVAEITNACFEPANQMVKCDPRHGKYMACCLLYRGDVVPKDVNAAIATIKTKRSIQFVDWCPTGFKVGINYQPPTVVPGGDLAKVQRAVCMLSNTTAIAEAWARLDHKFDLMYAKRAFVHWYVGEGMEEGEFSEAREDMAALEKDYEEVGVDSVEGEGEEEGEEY
# UniProt Q6PGP7, whole entry, looked up: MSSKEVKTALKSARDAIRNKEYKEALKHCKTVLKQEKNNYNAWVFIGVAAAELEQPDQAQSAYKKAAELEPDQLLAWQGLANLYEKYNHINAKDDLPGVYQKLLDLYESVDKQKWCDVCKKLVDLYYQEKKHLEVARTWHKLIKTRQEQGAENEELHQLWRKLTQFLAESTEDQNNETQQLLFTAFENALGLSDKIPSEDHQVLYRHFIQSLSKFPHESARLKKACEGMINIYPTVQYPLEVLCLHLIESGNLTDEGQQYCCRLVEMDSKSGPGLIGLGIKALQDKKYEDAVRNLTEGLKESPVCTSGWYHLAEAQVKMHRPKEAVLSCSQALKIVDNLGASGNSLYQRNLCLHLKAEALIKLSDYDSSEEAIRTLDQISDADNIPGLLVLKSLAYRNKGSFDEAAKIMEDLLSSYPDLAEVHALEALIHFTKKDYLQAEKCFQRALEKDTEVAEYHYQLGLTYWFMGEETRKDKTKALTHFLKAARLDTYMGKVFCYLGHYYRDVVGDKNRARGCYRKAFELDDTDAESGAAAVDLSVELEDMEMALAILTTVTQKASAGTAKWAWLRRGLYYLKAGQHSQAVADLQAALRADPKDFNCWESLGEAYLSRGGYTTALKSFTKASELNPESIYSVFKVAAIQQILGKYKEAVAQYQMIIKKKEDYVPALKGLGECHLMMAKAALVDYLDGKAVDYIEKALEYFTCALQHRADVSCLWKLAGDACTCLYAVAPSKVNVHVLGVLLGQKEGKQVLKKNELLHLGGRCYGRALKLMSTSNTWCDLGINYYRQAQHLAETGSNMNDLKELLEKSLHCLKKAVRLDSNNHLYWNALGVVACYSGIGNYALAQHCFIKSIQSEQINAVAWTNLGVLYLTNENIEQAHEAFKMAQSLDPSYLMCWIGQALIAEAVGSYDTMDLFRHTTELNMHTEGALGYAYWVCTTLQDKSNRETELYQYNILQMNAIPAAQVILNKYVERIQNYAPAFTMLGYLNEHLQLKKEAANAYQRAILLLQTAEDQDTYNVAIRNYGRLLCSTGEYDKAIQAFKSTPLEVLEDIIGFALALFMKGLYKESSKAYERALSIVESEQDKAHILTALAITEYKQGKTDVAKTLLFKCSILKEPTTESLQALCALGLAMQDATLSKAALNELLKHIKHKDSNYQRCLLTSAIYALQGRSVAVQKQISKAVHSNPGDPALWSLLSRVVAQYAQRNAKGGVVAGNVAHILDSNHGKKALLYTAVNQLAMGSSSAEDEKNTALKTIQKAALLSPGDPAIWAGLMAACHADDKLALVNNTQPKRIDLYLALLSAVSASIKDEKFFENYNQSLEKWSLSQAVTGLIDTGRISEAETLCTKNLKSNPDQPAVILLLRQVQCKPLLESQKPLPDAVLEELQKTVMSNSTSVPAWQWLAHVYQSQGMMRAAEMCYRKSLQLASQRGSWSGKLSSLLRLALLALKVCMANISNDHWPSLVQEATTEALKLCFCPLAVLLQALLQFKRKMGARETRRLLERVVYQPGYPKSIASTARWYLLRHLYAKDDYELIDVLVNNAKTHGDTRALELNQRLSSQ
# UniProt Q9UGJ1, whole entry, looked up: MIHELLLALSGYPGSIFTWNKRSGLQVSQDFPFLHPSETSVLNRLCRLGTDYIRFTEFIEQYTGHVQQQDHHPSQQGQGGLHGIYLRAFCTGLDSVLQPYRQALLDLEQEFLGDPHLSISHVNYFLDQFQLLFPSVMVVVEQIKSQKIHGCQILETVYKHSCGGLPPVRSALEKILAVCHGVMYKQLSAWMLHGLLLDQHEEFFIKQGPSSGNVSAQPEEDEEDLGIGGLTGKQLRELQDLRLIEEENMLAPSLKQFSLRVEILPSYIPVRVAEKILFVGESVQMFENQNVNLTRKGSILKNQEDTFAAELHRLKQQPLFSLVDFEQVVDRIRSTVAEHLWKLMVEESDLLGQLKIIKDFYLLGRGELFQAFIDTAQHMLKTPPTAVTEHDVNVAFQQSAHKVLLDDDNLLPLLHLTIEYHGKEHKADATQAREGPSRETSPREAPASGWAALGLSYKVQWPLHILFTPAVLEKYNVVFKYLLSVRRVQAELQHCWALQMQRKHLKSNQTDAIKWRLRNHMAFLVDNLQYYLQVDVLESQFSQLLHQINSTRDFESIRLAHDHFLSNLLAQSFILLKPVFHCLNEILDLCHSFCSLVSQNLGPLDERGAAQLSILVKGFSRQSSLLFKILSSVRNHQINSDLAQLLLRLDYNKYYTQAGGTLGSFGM
# UniProt P33981: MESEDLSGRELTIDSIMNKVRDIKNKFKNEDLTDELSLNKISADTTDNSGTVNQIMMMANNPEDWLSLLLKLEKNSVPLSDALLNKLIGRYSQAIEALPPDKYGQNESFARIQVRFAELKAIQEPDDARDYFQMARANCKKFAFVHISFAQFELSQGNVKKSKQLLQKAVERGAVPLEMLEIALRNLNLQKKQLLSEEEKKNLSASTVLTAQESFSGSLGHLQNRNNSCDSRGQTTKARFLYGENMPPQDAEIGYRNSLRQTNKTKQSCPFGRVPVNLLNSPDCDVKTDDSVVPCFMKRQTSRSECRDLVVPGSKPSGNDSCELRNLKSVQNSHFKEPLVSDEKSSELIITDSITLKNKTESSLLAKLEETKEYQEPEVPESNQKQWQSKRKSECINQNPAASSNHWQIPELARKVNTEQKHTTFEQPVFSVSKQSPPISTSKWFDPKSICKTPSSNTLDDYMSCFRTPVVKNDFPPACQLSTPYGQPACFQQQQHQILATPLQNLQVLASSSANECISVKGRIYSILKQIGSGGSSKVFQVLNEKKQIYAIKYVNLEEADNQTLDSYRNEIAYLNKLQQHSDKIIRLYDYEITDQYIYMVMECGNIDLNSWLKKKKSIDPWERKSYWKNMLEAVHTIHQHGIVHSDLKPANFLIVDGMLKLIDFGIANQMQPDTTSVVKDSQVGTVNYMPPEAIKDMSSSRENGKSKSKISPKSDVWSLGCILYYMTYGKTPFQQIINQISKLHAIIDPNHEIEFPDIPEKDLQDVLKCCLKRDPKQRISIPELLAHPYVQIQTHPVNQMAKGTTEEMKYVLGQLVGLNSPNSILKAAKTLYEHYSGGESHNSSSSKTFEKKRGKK
# UniProt Q9NUQ3: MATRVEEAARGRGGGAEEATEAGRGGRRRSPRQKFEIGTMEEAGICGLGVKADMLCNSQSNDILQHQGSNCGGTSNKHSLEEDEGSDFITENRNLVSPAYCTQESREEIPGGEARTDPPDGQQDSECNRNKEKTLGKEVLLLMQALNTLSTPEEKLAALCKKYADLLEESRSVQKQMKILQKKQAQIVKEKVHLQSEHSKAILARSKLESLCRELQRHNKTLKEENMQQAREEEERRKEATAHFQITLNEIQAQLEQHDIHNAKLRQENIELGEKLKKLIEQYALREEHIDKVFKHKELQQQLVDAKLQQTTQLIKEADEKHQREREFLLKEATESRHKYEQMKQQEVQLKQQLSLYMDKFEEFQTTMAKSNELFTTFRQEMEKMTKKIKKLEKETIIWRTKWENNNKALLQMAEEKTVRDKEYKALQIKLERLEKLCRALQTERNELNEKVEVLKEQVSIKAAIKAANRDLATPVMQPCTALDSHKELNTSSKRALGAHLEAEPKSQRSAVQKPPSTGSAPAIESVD
# This is one part of the list.
# Compound: CC1Cc2ccccc2N1C(=O)C1CCCN(C1)C(=O)CCl (mixture of isomers) [TRIM25 ligand 11 (diastereomer mixture)]
# Assay: probe-labelled cysteine peptide fold change vs DMSO (competition) (log2 fold change); higher = less target engagement (more negative = stronger competition)
# Settings: 10 µM; THP-1; incubation time: 4 h
# 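Note: competitive chemoproteomic profiling in live THP-1 cells with an iodoacetamide desthiobiotin (IA-DTB) probe, comparing probe-labelled peptide intensities in compound-treated cells against DMSO-treated controls.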
row,Target,probe-labelled cysteine peptide fold change
1,TRRAP_Q9Y4A5_2513_STPIGTSCQGAMLPSITNVINLADSHDR (UniProt Q9Y4A5),0.105
2,TROVE2_P10155_400_VLGSILNASTVAAAMCMVVTR (UniProt P10155),-0.413
3,TRRAP_Q9Y4A5_3849_VNTLVAAANSLDNLCR (UniProt Q9Y4A5),-0.0825
4,TUBGCP6_Q96RT7_302_VGCPPGHREEPYLTEAGR (UniProt Q96RT7),0.0602
5,TRMT2A_Q8IZ69_538_RLLYVSCNPR (UniProt Q8IZ69),0.0907
6,TSTA3_Q13630_112_VVSCLSTCIFPDK (UniProt Q13630),-0.022
7,TRMT1_Q9NXH9_86_DLTCAVITEFAR (UniProt Q9NXH9),-0.0295
8,TTLL12_Q14166_612_RVMQPQILEVNFNPDCER (UniProt Q14166),-0.104
9,TRMU_O75648_109_FSCFFHYAVDNLGADAIATGHYAR (UniProt O75648),-0.0407
10,TTC39C_Q8N584_87_MQLACDDLK (UniProt Q8N584),0.0875
11,TTC1_Q99614_178_EMAINDCSK (UniProt Q99614),-0.137
12,TTF2_Q9UNY4_522_SACQVTAGGSSQCYR (UniProt Q9UNY4),0.174
13,TRMT2A_Q8IZ69_270_GGTCAVAAPFDTVHIPEATK (UniProt Q8IZ69),-0.145
14,TRRAP_Q9Y4A5_2876_EALVQVEVSCPK (UniProt Q9Y4A5),0.177
15,TTC14_Q96N46_371_AIEDFELALENCPTHR (UniProt Q96N46),0.456
16,TUBGCP2_Q9BSJ2_656_QLCSVWISNK (UniProt Q9BSJ2),0.2
17,TTC27_Q6P3X3_743_CDTQSNCWEK (UniProt Q6P3X3),-0.0917
18,TUBGCP3_Q96CW5_388_TLAALVDHCQGRK (UniProt Q96CW5),-0.158
19,TUT4_Q5TAX3_825_KQDDLAPSETCLK (UniProt Q5TAX3),0.0258

row,Target,probe-labelled cysteine peptide fold change
1,TUFM_P49411_290_GDECELLGHSK (UniProt P49411),0.0556
2,TRRAP_Q9Y4A5_1376_IAALNALAACNYLPQSR (UniProt Q9Y4A5),-0.157
3,TTC7A_Q9ULT0_623_GPEEALVTCR (UniProt Q9ULT0),-0.00803
4,TTLL12_Q14166_418_ERWGEDNHWICKPWNLAR (UniProt Q14166),-0.426
5,TSFM_P43897_315_FECGEGEEAAETE (UniProt P43897),0.358
6,TUBA1B_P68363_347_SIQFVDWCPTGFK (UniProt P68363),0.00658
7,TUBGCP3_Q96CW5_325_SFGLVGQSFCAALHQELR (UniProt Q96CW5),0.124
8,TTC37_Q6PGP7_705_ALEYFTCALQHR (UniProt Q6PGP7),-0.00615
9,TUBGCP4_Q9UGJ1_162_HSCGGLPPVR (UniProt Q9UGJ1),-0.0263
10,TTK_P33981_322_DLVVPGSKPSGNDSCELR (UniProt P33981),-0.042
11,TTLL12_Q14166_528_QVHCEEFIPEFEK (UniProt Q14166),-0.0439
12,TUBB6_Q9BUF5_124+127_ECEHCDCLQGFQLTHSLGGGTGSGMGTLLISK (UniProt Q9BUF5),0.115
13,TXLNG_Q9NUQ3_101_NLVSPAYCTQESR (UniProt Q9NUQ3),0.0434
14,TUBGCP3_Q96CW5_497_SINFLHQVCHDQTPTTK (UniProt Q96CW5),0.0964
15,TTC7A_Q9ULT0_77_LLLAEALLEQCLK (UniProt Q9ULT0),0.394
16,TUBA4A_P68366_4_MRECISVHVGQAGVQMGNACWELYCLEHGIQPDGQMPSDK (UniProt P68366),-0.126
17,TTC5_Q8N0Z6_125_KGDVAAAHTCFSGALTHCR (UniProt Q8N0Z6),0.0196
18,TRPM7_Q96QT4_53_QHACFTASLAMK (UniProt Q96QT4),0.107

# Same assay, conditions: 50 µM; THP-1; incubation time: 4 h
row,Target,probe-labelled cysteine peptide fold change
1,TRRAP_Q9Y4A5_2513_STPIGTSCQGAMLPSITNVINLADSHDR (UniProt Q9Y4A5),-0.0541
2,TROVE2_P10155_400_VLGSILNASTVAAAMCMVVTR (UniProt P10155),0.243
3,TRRAP_Q9Y4A5_3849_VNTLVAAANSLDNLCR (UniProt Q9Y4A5),-0.125
4,TUBGCP6_Q96RT7_302_VGCPPGHREEPYLTEAGR (UniProt Q96RT7),0.00573
5,TRMT2A_Q8IZ69_538_RLLYVSCNPR (UniProt Q8IZ69),0.183
6,TSTA3_Q13630_112_VVSCLSTCIFPDK (UniProt Q13630),0.0145
7,TRMT1_Q9NXH9_86_DLTCAVITEFAR (UniProt Q9NXH9),-0.12
8,TTLL12_Q14166_612_RVMQPQILEVNFNPDCER (UniProt Q14166),-0.0281
9,TRMU_O75648_109_FSCFFHYAVDNLGADAIATGHYAR (UniProt O75648),-0.233
10,TTC39C_Q8N584_87_MQLACDDLK (UniProt Q8N584),-0.134
11,TTC1_Q99614_178_EMAINDCSK (UniProt Q99614),0.0317
12,TTF2_Q9UNY4_522_SACQVTAGGSSQCYR (UniProt Q9UNY4),-0.0617
13,TRMT2A_Q8IZ69_270_GGTCAVAAPFDTVHIPEATK (UniProt Q8IZ69),-0.0789
14,TRRAP_Q9Y4A5_2876_EALVQVEVSCPK (UniProt Q9Y4A5),0.137
15,TTC14_Q96N46_371_AIEDFELALENCPTHR (UniProt Q96N46),0.356
16,TUBGCP2_Q9BSJ2_656_QLCSVWISNK (UniProt Q9BSJ2),0.174
17,TTC27_Q6P3X3_743_CDTQSNCWEK (UniProt Q6P3X3),0.0553
18,TUBGCP3_Q96CW5_388_TLAALVDHCQGRK (UniProt Q96CW5),-0.0586
19,TUT4_Q5TAX3_825_KQDDLAPSETCLK (UniProt Q5TAX3),-0.114

row,Target,probe-labelled cysteine peptide fold change
1,TUFM_P49411_290_GDECELLGHSK (UniProt P49411),-0.156
2,TRRAP_Q9Y4A5_1376_IAALNALAACNYLPQSR (UniProt Q9Y4A5),-0.0725
3,TTC7A_Q9ULT0_623_GPEEALVTCR (UniProt Q9ULT0),0.131
4,TTLL12_Q14166_418_ERWGEDNHWICKPWNLAR (UniProt Q14166),-0.297
5,TSFM_P43897_315_FECGEGEEAAETE (UniProt P43897),0.0116
6,TUBA1B_P68363_347_SIQFVDWCPTGFK (UniProt P68363),-0.00159
7,TUBGCP3_Q96CW5_325_SFGLVGQSFCAALHQELR (UniProt Q96CW5),-0.187
8,TTC37_Q6PGP7_705_ALEYFTCALQHR (UniProt Q6PGP7),-0.0486
9,TUBGCP4_Q9UGJ1_162_HSCGGLPPVR (UniProt Q9UGJ1),-0.0338
10,TTK_P33981_322_DLVVPGSKPSGNDSCELR (UniProt P33981),-0.0632
11,TTLL12_Q14166_528_QVHCEEFIPEFEK (UniProt Q14166),-0.061
12,TUBB6_Q9BUF5_124+127_ECEHCDCLQGFQLTHSLGGGTGSGMGTLLISK (UniProt Q9BUF5),0.112
13,TXLNG_Q9NUQ3_101_NLVSPAYCTQESR (UniProt Q9NUQ3),-0.191
14,TUBGCP3_Q96CW5_497_SINFLHQVCHDQTPTTK (UniProt Q96CW5),-0.0933
15,TTC7A_Q9ULT0_77_LLLAEALLEQCLK (UniProt Q9ULT0),0.169
16,TUBA4A_P68366_4_MRECISVHVGQAGVQMGNACWELYCLEHGIQPDGQMPSDK (UniProt P68366),-0.437
17,TTC5_Q8N0Z6_125_KGDVAAAHTCFSGALTHCR (UniProt Q8N0Z6),0.225
18,TRPM7_Q96QT4_53_QHACFTASLAMK (UniProt Q96QT4),0.103
